# Assay results as given in the supplement of paper PMC8728848.
# Some of the results follow.
# B1: Clec12b (Mus musculus), Q149M0 (protein)
# chain: MSDEVTYATLMLQDSARVRGNQDGNNLRKEGHPAQSSLWRGAALSLMTLCLVLVTGLVTLATMFLQVSNDINSDSEKLSQLQKSIHPQQDNLSESLNSSRKSLTEESLQSQISALLERQEQMATKLCKEFLIHASDHKCNPCPKTWQWYGNSCYYFSINEEKSWSDSRKDCIDKNATLVKIDSTEERDLLQSQLSLTFSFFWLGLSWNSSGRNWLWEDGSFPPPTLFSDKELASFNGSRDCAYFERGNIYASRCSAEIPWICEKTASLVKTEDLD
# Columns and labels:
# Assay in all cases: glycan array binding signal (z-score within array); higher = stronger binding
# Conditions in all cases: glycan notation: IUPAC condensed, linker removed
# [1] = target: Neu5Gc(a2-8)Neu5Gc(a2-3)Gal(b1-4)GlcNAc(b1-3)Gal(b1-4)GlcNAc
# Procedure, shortened: (§1)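 The binding signal is a Z-score computed within each array and averaged over linkers. Arrays of the same protein sequence at different concentrations or buffers were also averaged together. Data originate from 3228 arrays in the Consortium for Functional Glycomics database, kept only where the protein sequence was available.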
# [2] = target: Neu5Gc(a2-8)Neu5Gc(a2-6)Gal(b1-4)GlcNAc
# Procedure, shortened: as §1
# [3] = target: Neu5Gc(b2-6)Gal(b1-4)GlcNAc
# Procedure, shortened: as §1
binder,measurement,setting,value
B1,glycan array binding signal (z-score),[1],-0.714
same,glycan array binding signal (z-score),[2],-0.288
same,glycan array binding signal (z-score),[3],-0.185
